The list shows a part of the results.
What was measured:
Assay in all cases: log2 fold change, soluble protein after heating vs DMSO (PISA); higher = thermal stabilisation; K562 lysate, 10 uM; active = over 0.2 and 3.5 SD of the protein, either way, in both replicates (recomputed)
[1] = compound: NCC(=O)Nc1ccc(-n2nc(C(F)(F)F)cc2-c2ccc3c(ccc4ccccc43)c2)cc1
Procedure, shortened: (§1)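 The values are log-two fold changes in thermal stability compared with solvent controls and come from duplicates. They were obtained by TMTpro 16plex LC-MS/MS, with channel sums equalised, on the supernatant after 21,000xg for 90 min. That supernatant came from crude K562 extract at 1 mg/mL protein treated with 10 μM compound for 30 min, heated for 3 min across 48°C-58°C, pooled and brought to 0.5% NP-40 at 4°C.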

Chains of the proteins cited; added tags and fusions are not shown. Lines headed by an entry give the natural chain unless they say otherwise; changes in a name come on top.
UniProt Q5VV52: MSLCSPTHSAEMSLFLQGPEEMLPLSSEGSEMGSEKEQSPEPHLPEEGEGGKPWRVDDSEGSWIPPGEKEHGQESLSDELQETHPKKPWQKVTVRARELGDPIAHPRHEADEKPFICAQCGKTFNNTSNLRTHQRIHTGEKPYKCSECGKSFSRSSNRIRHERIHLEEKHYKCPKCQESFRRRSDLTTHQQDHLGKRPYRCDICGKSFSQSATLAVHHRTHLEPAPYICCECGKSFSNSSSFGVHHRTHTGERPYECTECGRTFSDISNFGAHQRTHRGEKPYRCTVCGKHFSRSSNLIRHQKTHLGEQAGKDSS
UniProt Q96K58: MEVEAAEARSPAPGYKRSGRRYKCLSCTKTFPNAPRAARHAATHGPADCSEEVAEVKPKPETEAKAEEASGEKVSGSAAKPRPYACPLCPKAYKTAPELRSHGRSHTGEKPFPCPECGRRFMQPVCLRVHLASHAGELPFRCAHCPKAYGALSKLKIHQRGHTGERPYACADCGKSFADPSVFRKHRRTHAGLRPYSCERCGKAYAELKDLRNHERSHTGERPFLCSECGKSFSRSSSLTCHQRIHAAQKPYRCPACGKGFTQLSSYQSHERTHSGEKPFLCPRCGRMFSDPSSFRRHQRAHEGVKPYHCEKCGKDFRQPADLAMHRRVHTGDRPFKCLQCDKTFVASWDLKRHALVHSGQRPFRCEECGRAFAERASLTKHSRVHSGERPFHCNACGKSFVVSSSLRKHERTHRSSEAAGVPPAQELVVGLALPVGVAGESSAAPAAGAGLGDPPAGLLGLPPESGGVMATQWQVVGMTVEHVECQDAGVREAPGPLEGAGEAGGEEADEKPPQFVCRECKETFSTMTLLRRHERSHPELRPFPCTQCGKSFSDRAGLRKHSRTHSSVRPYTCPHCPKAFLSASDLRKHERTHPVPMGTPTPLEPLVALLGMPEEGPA
UniProt Q8TF50: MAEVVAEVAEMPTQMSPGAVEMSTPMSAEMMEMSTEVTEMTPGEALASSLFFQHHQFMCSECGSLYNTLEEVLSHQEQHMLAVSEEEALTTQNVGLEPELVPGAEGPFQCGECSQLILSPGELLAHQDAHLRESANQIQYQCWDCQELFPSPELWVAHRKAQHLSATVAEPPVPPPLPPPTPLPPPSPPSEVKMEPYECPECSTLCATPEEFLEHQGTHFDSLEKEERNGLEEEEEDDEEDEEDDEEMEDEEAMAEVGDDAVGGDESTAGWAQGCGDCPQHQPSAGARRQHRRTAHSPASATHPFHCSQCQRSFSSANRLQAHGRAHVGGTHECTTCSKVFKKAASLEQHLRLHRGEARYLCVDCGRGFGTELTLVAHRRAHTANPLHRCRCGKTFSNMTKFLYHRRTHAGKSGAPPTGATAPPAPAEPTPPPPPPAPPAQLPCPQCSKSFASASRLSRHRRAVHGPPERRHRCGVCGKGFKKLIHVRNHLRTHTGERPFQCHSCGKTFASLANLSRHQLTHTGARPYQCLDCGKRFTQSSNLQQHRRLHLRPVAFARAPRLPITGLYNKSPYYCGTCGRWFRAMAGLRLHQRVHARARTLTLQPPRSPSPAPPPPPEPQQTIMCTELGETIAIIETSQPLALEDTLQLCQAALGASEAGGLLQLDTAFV
UniProt Q8IYB9: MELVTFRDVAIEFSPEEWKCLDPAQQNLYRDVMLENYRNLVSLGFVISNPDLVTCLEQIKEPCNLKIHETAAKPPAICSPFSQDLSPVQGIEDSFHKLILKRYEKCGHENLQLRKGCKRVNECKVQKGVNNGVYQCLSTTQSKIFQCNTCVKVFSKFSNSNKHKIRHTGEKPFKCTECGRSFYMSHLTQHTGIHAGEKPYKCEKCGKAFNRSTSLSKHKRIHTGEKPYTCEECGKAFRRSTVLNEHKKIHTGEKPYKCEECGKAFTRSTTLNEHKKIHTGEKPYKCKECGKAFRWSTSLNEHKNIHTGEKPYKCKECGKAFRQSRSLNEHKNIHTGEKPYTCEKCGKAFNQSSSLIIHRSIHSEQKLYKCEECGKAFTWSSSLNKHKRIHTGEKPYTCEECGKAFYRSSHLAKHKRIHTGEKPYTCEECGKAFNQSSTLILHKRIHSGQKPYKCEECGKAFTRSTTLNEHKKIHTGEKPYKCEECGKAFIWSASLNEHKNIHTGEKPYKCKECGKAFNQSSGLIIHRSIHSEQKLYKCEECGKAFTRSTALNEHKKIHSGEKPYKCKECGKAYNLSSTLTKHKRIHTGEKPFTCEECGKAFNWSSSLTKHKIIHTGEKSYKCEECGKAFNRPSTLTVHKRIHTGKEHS
UniProt Q9BS34: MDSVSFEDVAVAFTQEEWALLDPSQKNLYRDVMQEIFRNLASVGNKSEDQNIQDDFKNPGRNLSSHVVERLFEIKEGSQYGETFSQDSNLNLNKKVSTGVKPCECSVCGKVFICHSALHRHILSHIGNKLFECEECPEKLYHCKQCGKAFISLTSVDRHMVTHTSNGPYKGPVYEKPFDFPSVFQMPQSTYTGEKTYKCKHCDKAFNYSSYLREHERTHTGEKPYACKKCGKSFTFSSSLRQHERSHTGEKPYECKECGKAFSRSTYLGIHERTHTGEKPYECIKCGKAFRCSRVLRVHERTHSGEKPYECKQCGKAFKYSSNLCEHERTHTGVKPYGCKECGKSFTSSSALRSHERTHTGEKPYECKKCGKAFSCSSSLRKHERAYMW
UniProt Q9P1U0, whole entry, looked up: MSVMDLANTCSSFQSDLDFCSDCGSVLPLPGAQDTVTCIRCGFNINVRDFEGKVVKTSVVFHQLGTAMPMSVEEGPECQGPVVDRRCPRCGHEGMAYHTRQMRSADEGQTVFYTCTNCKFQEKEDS
UniProt Q6WRX3: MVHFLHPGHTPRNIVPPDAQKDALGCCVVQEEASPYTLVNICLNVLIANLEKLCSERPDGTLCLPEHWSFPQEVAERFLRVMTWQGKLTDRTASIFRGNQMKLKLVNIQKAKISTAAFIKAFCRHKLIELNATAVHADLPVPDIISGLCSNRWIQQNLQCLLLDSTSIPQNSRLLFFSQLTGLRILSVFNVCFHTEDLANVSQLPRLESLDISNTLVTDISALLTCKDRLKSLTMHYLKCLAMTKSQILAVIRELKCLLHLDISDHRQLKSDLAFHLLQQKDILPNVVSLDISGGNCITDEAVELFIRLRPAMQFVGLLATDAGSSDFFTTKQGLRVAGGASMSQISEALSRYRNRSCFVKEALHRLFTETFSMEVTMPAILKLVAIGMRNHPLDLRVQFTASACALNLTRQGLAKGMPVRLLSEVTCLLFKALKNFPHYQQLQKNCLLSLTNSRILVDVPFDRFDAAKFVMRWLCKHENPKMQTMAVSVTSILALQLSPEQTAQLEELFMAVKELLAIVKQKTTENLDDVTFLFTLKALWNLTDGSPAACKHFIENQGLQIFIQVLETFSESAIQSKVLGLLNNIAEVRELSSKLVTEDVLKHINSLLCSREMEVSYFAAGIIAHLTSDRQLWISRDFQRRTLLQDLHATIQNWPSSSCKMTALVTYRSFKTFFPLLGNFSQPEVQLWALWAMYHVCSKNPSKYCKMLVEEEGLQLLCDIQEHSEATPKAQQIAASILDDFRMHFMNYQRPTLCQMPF
UniProt Q6NSZ9: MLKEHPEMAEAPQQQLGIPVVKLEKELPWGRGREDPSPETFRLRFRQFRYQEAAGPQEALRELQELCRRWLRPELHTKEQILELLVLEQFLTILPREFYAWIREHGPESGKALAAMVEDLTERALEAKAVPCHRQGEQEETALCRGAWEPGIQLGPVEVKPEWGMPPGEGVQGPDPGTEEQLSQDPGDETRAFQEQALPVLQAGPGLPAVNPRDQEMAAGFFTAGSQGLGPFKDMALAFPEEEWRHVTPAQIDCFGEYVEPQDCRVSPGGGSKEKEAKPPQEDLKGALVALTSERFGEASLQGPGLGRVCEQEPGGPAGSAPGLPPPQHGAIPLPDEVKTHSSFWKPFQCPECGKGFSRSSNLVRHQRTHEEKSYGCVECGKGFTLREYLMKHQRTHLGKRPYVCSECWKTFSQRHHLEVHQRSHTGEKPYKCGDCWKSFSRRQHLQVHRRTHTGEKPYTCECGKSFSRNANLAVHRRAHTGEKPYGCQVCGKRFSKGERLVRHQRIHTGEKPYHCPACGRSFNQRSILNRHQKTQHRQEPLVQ
UniProt Q7L3S4: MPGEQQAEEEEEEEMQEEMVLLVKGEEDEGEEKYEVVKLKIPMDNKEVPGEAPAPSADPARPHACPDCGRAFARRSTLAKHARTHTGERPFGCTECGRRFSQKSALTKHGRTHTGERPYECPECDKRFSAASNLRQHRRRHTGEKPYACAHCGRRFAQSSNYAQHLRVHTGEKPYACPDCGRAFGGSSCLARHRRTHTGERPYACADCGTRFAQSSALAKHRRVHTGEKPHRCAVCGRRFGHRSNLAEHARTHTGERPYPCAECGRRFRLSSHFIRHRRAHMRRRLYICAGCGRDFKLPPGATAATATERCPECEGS
UniProt Q5BKZ1: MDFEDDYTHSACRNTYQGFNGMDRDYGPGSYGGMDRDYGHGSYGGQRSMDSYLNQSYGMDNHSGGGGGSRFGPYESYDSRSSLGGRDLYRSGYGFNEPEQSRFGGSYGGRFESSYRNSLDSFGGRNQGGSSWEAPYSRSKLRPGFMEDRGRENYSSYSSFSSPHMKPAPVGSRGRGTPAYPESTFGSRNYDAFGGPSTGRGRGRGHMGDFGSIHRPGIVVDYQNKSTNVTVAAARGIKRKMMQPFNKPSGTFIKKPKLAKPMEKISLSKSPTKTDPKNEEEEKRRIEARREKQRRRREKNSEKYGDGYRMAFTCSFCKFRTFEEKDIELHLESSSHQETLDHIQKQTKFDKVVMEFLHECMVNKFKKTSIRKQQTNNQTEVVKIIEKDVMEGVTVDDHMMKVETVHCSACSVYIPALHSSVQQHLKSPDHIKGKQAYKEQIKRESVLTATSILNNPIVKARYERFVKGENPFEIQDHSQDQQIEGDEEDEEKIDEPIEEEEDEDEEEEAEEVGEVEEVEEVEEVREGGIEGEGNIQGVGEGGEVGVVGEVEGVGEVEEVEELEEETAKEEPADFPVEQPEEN
UniProt Q14592: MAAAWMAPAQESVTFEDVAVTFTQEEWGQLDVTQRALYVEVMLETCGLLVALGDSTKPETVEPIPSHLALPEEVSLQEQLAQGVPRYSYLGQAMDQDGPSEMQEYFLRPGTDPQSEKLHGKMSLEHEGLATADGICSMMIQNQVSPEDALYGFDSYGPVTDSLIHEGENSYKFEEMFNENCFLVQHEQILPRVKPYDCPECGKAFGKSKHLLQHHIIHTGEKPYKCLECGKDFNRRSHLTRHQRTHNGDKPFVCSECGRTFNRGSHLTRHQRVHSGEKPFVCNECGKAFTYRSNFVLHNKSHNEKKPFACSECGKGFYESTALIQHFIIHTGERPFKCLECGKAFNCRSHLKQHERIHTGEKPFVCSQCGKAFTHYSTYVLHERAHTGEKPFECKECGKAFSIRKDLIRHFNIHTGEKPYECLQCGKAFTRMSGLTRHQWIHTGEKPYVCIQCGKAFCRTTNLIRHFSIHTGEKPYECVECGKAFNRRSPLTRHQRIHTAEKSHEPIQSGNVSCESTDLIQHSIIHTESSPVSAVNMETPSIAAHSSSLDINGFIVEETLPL
UniProt Q8TCN5: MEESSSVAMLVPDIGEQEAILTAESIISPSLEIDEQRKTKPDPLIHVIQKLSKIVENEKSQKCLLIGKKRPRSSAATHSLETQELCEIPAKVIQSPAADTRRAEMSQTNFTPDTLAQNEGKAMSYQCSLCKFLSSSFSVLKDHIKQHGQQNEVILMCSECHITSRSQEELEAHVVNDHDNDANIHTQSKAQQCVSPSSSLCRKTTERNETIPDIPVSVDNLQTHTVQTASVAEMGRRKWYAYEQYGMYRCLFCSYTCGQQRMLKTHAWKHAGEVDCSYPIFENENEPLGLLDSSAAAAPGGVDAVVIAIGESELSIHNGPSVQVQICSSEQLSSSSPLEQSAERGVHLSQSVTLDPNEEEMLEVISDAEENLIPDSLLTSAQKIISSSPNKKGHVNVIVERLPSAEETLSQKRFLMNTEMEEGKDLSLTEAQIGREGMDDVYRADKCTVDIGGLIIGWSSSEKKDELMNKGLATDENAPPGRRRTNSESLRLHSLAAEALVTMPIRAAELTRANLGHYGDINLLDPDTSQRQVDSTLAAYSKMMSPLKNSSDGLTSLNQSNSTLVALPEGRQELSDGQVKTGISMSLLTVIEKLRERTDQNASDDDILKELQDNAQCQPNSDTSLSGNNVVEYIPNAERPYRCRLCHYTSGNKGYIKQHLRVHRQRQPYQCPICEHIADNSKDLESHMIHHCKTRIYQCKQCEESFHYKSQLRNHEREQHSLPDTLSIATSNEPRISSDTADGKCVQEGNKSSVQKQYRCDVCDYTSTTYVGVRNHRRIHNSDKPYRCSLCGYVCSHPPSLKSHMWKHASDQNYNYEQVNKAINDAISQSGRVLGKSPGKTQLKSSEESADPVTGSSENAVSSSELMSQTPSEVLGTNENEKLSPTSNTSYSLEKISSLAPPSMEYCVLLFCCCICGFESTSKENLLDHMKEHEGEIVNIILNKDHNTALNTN

[2] = compound: O=C1NC(=O)C(c2cnc3ccccn23)=C1c1cn2c3c(cc(F)cc13)CN(C(=O)N1CCCCC1)CC2
Procedure, shortened: as §1

entospletinib = compound: c1cn2cc(-c3ccc4cn[nH]c4c3)nc(Nc3ccc(N4CCOCC4)cc3)c2n1 [entospletinib]
Procedure, shortened: as §1

vorinostat = compound: O=C(CCCCCCC(=O)Nc1ccccc1)NO [vorinostat]
Procedure, shortened: as §1

silmitasertib = compound: O=C(O)c1ccc2c(c1)nc(Nc1cccc(Cl)c1)c1ccncc12 [silmitasertib]
Procedure, shortened: as §1

Target | log2 fold change [1] | log2 fold change [2] | log2 fold change (entospletinib) | log2 fold change (vorinostat) | log2 fold change (silmitasertib)
ZNF691 (UniProt Q5VV52) | inactive: -0.02 | inactive: 0.074 | inactive: 0.074 | – | –
ZNF668 isoform 2 (UniProt Q96K58) | – | inactive: -0.023 | – | inactive: -0.354 | inactive: -0.131
ZNF618 (UniProt B1ALC2) | inactive: 0.092 | inactive: 0.054 | inactive: 0.121 | – | –
ZNF526 (UniProt Q8TF50) | – | – | – | inactive: -0.112 | inactive: 0.041
ZNF595 (UniProt Q8IYB9) | inactive: -0.01 | inactive: -0.054 | inactive: -0.049 | – | –
ZNF670 (UniProt Q9BS34) | – | – | – | inactive: -0.04 | inactive: 0.014
ZNF451 (UniProt Q9Y4E5) | inactive: 0.064 | inactive: -0.013 | inactive: 0.019 | active: -0.538 | inactive: -0.003
ZNRD1 (UniProt Q9P1U0) | – | – | – | inactive: 0.115 | inactive: 0.022
ZYG11A (UniProt Q6WRX3) | – | – | – | active: 0.719 | inactive: 0.17
ZSCAN25 (UniProt Q6NSZ9) | – | – | – | inactive: -0.042 | inactive: 0.045
ZNF771 (UniProt Q7L3S4) | – | – | – | inactive: 0.238 | inactive: 0.065
ZNF326 (UniProt Q5BKZ1) | inactive: 0.044 | inactive: 0.044 | inactive: 0.015 | inactive: 0.016 | inactive: -0.053
ZNF460 (UniProt Q14592) | inactive: -0.154 | – | inactive: 0.049 | – | –
ZNF507 (UniProt Q8TCN5) | inactive: -0.004 | inactive: 0.004 | inactive: -0.002 | inactive: -0.025 | inactive: 0.009

Taken from the entries so far for reference:
Target | log2 fold change [1] | log2 fold change [2] | log2 fold change (entospletinib) | log2 fold change (vorinostat) | log2 fold change (silmitasertib)
ZNF526 (UniProt Q8TF50) | – | – | – | inactive: -0.112 | inactive: 0.041
ZNF595 (UniProt Q8IYB9) | inactive: -0.01 | inactive: -0.054 | inactive: -0.049 | – | –
